These are yes or no findings as the source states them, for the method shown. In cells and extracts the contact can be indirect. A yes stands for co-enrichment or nearness to the bait. Other partners may have been found. For some assays here: Tags and fused reporters may be left off the sequences shown.

Protein sequences, listed by entry. Tags and fused reporters are not part of them. Lines headed by an entry give the natural chain unless they say otherwise; changes in a name come on top.
UniProt Q6PIU1: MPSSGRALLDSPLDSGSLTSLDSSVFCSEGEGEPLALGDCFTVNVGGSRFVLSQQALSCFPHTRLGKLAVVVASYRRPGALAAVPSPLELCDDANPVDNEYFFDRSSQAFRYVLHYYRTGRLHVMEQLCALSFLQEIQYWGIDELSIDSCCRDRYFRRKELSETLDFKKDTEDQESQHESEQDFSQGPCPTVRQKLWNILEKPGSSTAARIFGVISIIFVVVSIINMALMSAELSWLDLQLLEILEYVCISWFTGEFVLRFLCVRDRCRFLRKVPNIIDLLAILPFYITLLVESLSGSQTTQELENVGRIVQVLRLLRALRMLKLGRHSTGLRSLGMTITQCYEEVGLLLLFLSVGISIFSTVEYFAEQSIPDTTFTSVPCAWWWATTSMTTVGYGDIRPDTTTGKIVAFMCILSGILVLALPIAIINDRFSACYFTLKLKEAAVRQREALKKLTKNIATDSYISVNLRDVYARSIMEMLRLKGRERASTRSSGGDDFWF
UniProt O43526: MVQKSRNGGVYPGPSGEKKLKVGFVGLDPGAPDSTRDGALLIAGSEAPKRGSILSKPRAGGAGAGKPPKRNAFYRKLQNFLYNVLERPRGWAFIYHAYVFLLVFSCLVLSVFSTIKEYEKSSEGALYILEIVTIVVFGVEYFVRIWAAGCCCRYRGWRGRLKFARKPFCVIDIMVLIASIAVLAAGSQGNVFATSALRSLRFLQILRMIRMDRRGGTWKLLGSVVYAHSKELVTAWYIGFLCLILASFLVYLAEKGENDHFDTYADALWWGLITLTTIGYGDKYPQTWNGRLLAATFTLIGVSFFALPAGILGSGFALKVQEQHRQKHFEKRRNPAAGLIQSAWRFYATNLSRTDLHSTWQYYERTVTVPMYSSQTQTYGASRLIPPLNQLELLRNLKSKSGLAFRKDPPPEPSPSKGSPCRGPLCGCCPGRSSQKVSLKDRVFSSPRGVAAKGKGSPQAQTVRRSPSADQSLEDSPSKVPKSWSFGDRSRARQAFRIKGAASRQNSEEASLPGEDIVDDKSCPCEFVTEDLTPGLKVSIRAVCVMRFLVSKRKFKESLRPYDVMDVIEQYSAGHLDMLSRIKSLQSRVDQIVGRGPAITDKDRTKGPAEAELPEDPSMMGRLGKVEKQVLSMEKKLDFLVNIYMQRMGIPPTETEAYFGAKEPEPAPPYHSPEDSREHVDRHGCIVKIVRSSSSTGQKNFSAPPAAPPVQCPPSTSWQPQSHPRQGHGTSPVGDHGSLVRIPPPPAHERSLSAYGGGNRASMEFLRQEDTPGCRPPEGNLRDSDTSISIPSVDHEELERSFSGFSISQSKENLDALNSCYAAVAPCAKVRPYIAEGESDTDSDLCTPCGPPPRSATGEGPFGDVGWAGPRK

We go through 1 substance from paper PMC11335225.

One assay addresses BioID2-HA-tagged KV8.1 (UniProt Q6PIU1). The assay is described as follows: proximity labelling; BioID: KVS-BioID2-HA and flag-tagged KV7.2 co-expressed in HEK293 cells, 50 uM biotin for 18-24 h, RIPA lysis, biotinylated proteins purified on magnetic streptavidin beads, anti-flag western blot. (Immunoblotting shows a protein as a band on a membrane.)
In a further assay the target is T1, BioID2-HA-tagged KV8.2 (UniProt Q8TDN2).
T1 sequence: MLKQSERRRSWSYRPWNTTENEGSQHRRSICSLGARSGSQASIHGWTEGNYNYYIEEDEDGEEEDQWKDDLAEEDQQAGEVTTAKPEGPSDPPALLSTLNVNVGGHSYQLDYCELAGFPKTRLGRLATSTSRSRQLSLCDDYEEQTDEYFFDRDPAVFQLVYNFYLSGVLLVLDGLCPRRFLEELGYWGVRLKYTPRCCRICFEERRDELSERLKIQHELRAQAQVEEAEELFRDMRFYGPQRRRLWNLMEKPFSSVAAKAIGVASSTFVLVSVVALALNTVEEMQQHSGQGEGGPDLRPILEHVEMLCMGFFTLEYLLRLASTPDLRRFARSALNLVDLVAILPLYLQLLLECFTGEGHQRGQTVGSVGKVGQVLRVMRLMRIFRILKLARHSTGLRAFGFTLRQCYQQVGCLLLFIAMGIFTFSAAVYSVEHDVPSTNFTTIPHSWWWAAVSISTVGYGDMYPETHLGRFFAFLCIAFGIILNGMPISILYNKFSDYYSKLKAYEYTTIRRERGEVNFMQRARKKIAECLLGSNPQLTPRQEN
The description is as above.

Take “flag-tagged KV7.2 channel subunit (from UniProt O43526 1-872)”: the binding result with BioID2-HA-tagged KV8.1 and with BioID2-HA-tagged KV8.2 was “binds” throughout.
